In patent US20240226074A1, “CELL-OF-ORIGIN TARGETED DRUG REPURPOSING FOR TRIPLE-NEGATIVE AND INFLAMMATORY BREAST CARCINOMA WITH HDAC AND HSP90 INHIBITORS COMBINED WITH NICLOSAMIDE” (priority 2022, published 2024):

Assay: Peak serum concentrations achieved in clinical trials
Conditions: human, in vivo

Compound: O=C(/C=C/c1cccc(S(=O)(=O)Nc2ccccc2)c1)NO [Belinostat]
- Ratio (Phase I-II Cmax / experimental three-drug concentration): 200

Compound: O=C(Nc1ccc([N+](=O)[O-])cc1Cl)c1cc(Cl)ccc1O [Niclosamide]
- Ratio (Phase I-II Cmax / experimental three-drug concentration): 20

Compound: O=C(CCCCCCC(=O)Nc1ccccc1)NO [Vorinostat]
- Ratio (Phase I-II Cmax / experimental three-drug concentration): 40

Compound: CCc1cc(C(N)=O)ccc1-n1nc(C(C)C)c2c(-n3cnc(-c4cnn(C)c4)c3)ccnc21 [Pimitespib]
- Ratio (Phase I-II Cmax / experimental three-drug concentration): 11-35
